PubChem BioAssay AID1259308 – NCATS – 2017
Here is an unselected part of about 59,000 reagents tested. Over the whole deposit, about 1,510 (2.6%) are marked active. 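Calls use total luciferase alone and ignore viability, so some active siRNAs may act by altering cell number.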 Entries without a mark were called inactive. Reagents against one gene are numbered here.

- Purpose: 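Knock-downs that increase output of a recombinant reporter protein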 (primary screen)
- Cell system: human HEK293 embryonic kidney cells stably expressing firefly luciferase (HEK-CMV-Luc2-Hygro)
- Knock-down reagent: single siRNA against human genes, 0.8 pmol siRNA per well
- Timing: 72 h
- Read-out: 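Luciferase light (ONE-Glo) measured on one replicate plate set and viability (CellTiter-Glo) on the other, scaled to a negative control siRNA, with robust z-scores and luciferase per cell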
- Scale: total luciferase, z-score and total luciferase, % of control: higher = more reporter protein produced; luciferase per cell, z-score: higher = more reporter output per viable cell; viable cells, % of control: higher = more viable cells
- Rule for the call: 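An siRNA counts as active if its total luciferase robust z-score exceeds 3; genes with two or more such siRNAs out of three were retested with fresh siRNAs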
- Calls: active = raised luciferase; inactive = no rise

no.	target	reagent no.	total luciferase, z-score	total luciferase, % of control	luciferase per cell, z-score	viable cells, % of control
1	MROH5 (GeneID 389690)	1	-0.36	74.7	0.0156	83.2
2	MROH5 (GeneID 389690)	2	-0.366	74.6	-0.834	104
3	MROH5 (GeneID 389690)	3	0.368	89.2	0.632	84.4
4	GOT2 (GeneID 2806)	1	-2.08	40.5	-2.4	85
5	GOT2 (GeneID 2806)	2	-1.24	57.2	-0.93	81.6
6	GOT2 (GeneID 2806)	3	-0.678	68.4	-0.386	84.6
7	PLEKHA7 (GeneID 144100)	1	-0.897	64	-1.2	98.1
8	PLEKHA7 (GeneID 144100)	2	-0.0989	79.9	-0.00394	89.4
9	PLEKHA7 (GeneID 144100)	3	0.33	88.5	0.43	88.3
10	LY6H (GeneID 4062)	1	0.189	85.6	0.317	88
11	LY6H (GeneID 4062)	2	0.316	88.2	0.555	85.1
12	LY6H (GeneID 4062)	3	0.619	94.2	0.972	81.5
13	OR52W1 (GeneID 120787)	1	1	102	1.32	80.4
14	OR52W1 (GeneID 120787)	2	1.79	118	1.7	83.9
15	OR52W1 (GeneID 120787)	3	1.35	109	1.3	86.2
16	NAMPT (GeneID 10135)	1	-0.536	71.2	0.348	72.6
17	NAMPT (GeneID 10135)	2	-1.43	53.5	-1.65	92.3
18	NAMPT (GeneID 10135)	3	0.398	89.8	-0.13	104
19	UROD (GeneID 7389)	1	0.132	84.5	-0.301	102
20	UROD (GeneID 7389)	2	0.422	90.3	1.2	73.5
21	UROD (GeneID 7389)	3	0.266	87.2	0.479	85.9
22	RTL1 (GeneID 388015)	1	2.39	129	1.14	107
23	RTL1 (GeneID 388015)	2	-0.379	74.3	-0.285	89.6
24	RTL1 (GeneID 388015)	3	0.605	93.9	0.121	102
25	ARL2 (GeneID 402)	1	-0.579	70.4	-1.12	106
26	ARL2 (GeneID 402)	2	1.49	112	1.43	85.4
27	ARL2 (GeneID 402)	3	-1.33	55.4	-1.14	83.6
28	GRAMD2B (GeneID 65983)	1	-0.174	78.4	-0.373	96.7
29	GRAMD2B (GeneID 65983)	2	-0.529	71.4	-0.359	87.7
30	GRAMD2B (GeneID 65983)	3	-0.343	75.1	-0.207	88.6
31	SPACDR (GeneID 402573)	1	-0.379	74.3	-0.692	99.7
32	SPACDR (GeneID 402573)	2	0.599	93.8	0.805	84.8
33	SPACDR (GeneID 402573)	3	0.566	93.1	0.803	84.2
34	PRM3 (GeneID 58531)	1	-0.552	70.9	-0.522	90.9
35	PRM3 (GeneID 58531)	2	-0.642	69.1	-0.686	92.5
36	PRM3 (GeneID 58531)	3	1.71	116	1.22	93.9
37	RHD (GeneID 6007)	1	-0.243	77	0.0172	85.7
38	RHD (GeneID 6007)	2	-0.471	72.5	-0.0526	82.2
39	RHD (GeneID 6007)	3	-1.38	54.4	-0.627	71.7

Copied from above for reference:
no.	target	reagent no.	total luciferase, z-score	total luciferase, % of control	luciferase per cell, z-score	viable cells, % of control
19	UROD (GeneID 7389)	1	0.132	84.5	-0.301	102
20	UROD (GeneID 7389)	2	0.422	90.3	1.2	73.5
21	UROD (GeneID 7389)	3	0.266	87.2	0.479	85.9
22	RTL1 (GeneID 388015)	1	2.39	129	1.14	107
23	RTL1 (GeneID 388015)	2	-0.379	74.3	-0.285	89.6
24	RTL1 (GeneID 388015)	3	0.605	93.9	0.121	102
